pIC50: −log10 of the molar value. Some entries share one result that the patent states for a list of compounds.
Target: T1, cGMP PDE5 (Homo sapiens, UniProt O76074)
T1 construct: The required PDE enzymes were isolated from a variety of sources, including human corpus cavernosum, human platelets; from tissue; host or cells: human corpus cavernosum tissue or human platelets
Test: In vitro cGMP PDE5 inhibitory activity (IC50)
Assay type: biochemical
Settings: bounds for groups of Examples; read-out: IC50 values for the PDE5 enzyme
Protocol: The compounds of the present invention are potent and selective cGMP PDE5 inhibitors. In vitro PDE inhibitory activities against cyclic guanosine 3′,5′-monophosphate (cGMP) and cyclic adenosine 3′,5′-monophosphate (cAMP) phosphodiesterases were determined by measurement of their IC50 values (the concentration of compound required for 50% inhibition of enzyme activity).
The required PDE enzymes were isolated from a variety of sources, including human corpus cavernosum, human platelets, human cardiac ventricle, human skeletal muscle and human and canine retina, essentially by the method of W. J. Thompson and M. M. Appleman (Biochem., 1971, 10, 311). In particular, the cGMP-specific PDE (PDE5) and the cGMP-inhibited cAMP PDE (PDE3) were obtained from human corpus cavernosum tissue or human platelets; the cGMP-stimulated PDE (PDE2) was obtained from human corpus cavernosum or human platelets; the calcium/calmodulin (Ca/CAM)-dependent PDE (PDE1) from human cardiac ventricle; the cAMP-specific PDE (PDE4) from recombinant clone or human skeletal muscle; and the photoreceptor PDE (PDE6) from canine or human retina. Phosphodiesterases 7-11 were generated from full length human recombinant clones transfected into SF9 cells.
Assays were performed either using a modification of the “batch” method of W. J. Thompson et al. (Biochem., 1979, 18, 5228) or using a scintillation proximity assay for the direct detection of AMP/GMP using a modification of the protocol described by Amersham pic under product code TRKQ7090/7100. In summary, the effect of PDE inhibitors was investigated by assaying a fixed amount of enzyme in the presence of varying inhibitor concentrations and low substrate, (cGMP or cAMP in a 3:1 ratio unlabelled to [^3H]-labeled at a conc ˜½ Km) such that IC50 ≅Ki. The final assay volume was made up to 102 μl with assay buffer [20 mM Tris-HCl pH 7.4, 5 mM MgCl2, 1 mg/ml bovine serum albumin]. Reactions were initiated with enzyme, incubated for 30-60 min at 30° C. to give <30% substrate turnover and terminated with 50 μl yttrium silicate SPA beads (containing 3 mM of the respective unlabelled cyclic nucleotide for PDEs 3, 9 and 11). Plates were resealed and shaken for 20 min, after which the beads were allowed to settle for 30 min in the dark and then counted on a TopCount plate reader (Packard, Meriden, Conn.). Radioactivity units were converted to % activity of an uninhibited control (100%), plotted against inhibitor concentration and inhibitor IC50 values obtained using the ‘Fit Curve’ Microsoft Excel extension or inhouse equivalent.

Row | Structure (SMILES) | pIC50
1 | CCCc1nn(C)c2c(=O)[nH]c(-c3cc(S(C)(=O)=O)ccc3OCC)nc12 [Example 1, 5-[2-Ethoxy-5-(methylsulfonyl)phenyl]-1-methyl-3-propyl-1,6-dihydro-7H-pyrazolo[4,3-d]pyrimidin-7-one] | > 7.52
2 | CCCCOc1ccc(S(C)(=O)=O)cc1-c1nc2c(CC)n(CCOC)nc2c(=O)[nH]1 [Example 2, 5-[2-Butoxy-5-(methylsulfonyl)phenyl]-3-ethyl-2-(2-methoxyethyl)-2,6-dihydro-7H-pyrazolo[4,3-d]pyrimidin-7-one] | > 7.52
3 | CCc1nn(Cc2ccccn2)c2c(=O)[nH]c(-c3cc(S(C)(=O)=O)ccc3OCC(C)C)nc12 [Example 3, 3-Ethyl-5-[2-isobutoxy-5-(methylsulfonyl)phenyl]-1-(2-pyridinylmethyl)-1,6-dihydro-7H-pyrazolo[4,3-d]pyrimidin-7-one] | > 7.52
4 | CCc1nn(Cc2ccccn2)c2c(=O)[nH]c(-c3cc(S(C)(=O)=O)ccc3OCCOC)nc12 [Example 4, 3-Ethyl-5-[2-(2-methoxyethoxy)-5-(methylsulfonyl)phenyl]-1-(2-pyridinylmethyl)-1,6-dihydro-7H-pyrazolo[4,3-d]pyrimidin-7-one] | > 7.52
5 | CCCCOc1ccc(S(C)(=O)=O)cc1-c1nc2c(CC)nn(Cc3ccccn3)c2c(=O)[nH]1 [Example 5, 5-[2-Butoxy-5-(methylsulfonyl)phenyl]-3-ethyl-1-(2-pyridinylmethyl)-1,6-dihydro-7H-pyrazolo[4,3-d]pyrimidin-7-one] | > 7.52
6 | CCc1n[nH]c2c(=O)[nH]c(-c3cc(S(C)(=O)=O)ccc3OCc3ccccn3)nc12 [Example 6, 3-Ethyl-5-[5-(methylsulfonyl)-2-(2-pyridinylmethoxy)phenyl]-1,6-dihydro-7H-pyrazolo[4,3-d]pyrimidin-7-one] | > 7.52
7 | CCc1nn(Cc2nccn2C)c2c(=O)[nH]c(-c3cc(S(C)(=O)=O)ccc3OCC(C)C)nc12 [Example 7, 3-Ethyl-5-[2-isobutoxy-5-(methylsulfonyl)phenyl]-1-[(1-methyl-1H-imidazol-2-yl)methyl]-1,6-dihydro-7H-pyrazolo[4,3-d]pyrimidin-7-one] | > 7.52
8 | CCCCOc1ccc(S(C)(=O)=O)cc1-c1nc2c(CC)n(CCN3CCOCC3)nc2c(=O)[nH]1 [Example 8, 5-[2-Butoxy-5-(methylsulfonyl)phenyl]-3-ethyl-2-[2-(4-morpholinyl)ethyl]-2,6-dihydro-7H-pyrazolo[4,3-d]pyrimidin-7-one] | > 7.52
9 | CCc1c2nc(-c3cc(S(C)(=O)=O)ccc3OCC(C)C)[nH]c(=O)c2nn1Cc1nccn1C [Example 9, 3-Ethyl-5-[2-isobutoxy-5-(methylsulfonyl)phenyl]-2-[(1-methyl-1H-imidazol-2-yl)methyl]-2,6-dihydro-7H-pyrazolo[4,3-d]pyrimidin-7-one] | > 7.52
10 | CCc1c2nc(-c3cc(S(C)(=O)=O)ccc3OCC(C)C)[nH]c(=O)c2nn1CCN1CCOCC1 [Example 10, 3-Ethyl-5-[2-isobutoxy-5-(methylsulfonyl)phenyl]-2-[2-(4-morpholinyl)ethyl]-2,6-dihydro-7H-pyrazolo[4,3-d]pyrimidin-7-one] | > 7.52
11 | CCCOc1ccc(S(C)(=O)=O)cc1-c1nc2c(CC)nn(Cc3ccccn3)c2c(=O)[nH]1 [Example 11, 3-Ethyl-5-[5-(methylsulfonyl)-2-propoxyphenyl]-1-(2-pyridinylmethyl)-1,6-dihydro-7H-pyrazolo[4,3-d]pyrimidin-7-one] | > 7.52
12 | CCCOc1ccc(S(C)(=O)=O)cc1-c1nc2c(CC)n(CC3CC3)nc2c(=O)[nH]1 [Example 12, 2-(Cyclopropylmethyl)-3-ethyl-5-[5-(methylsulfonyl)-2-propoxyphenyl]-2,6-dihydro-7H-pyrazolo[4,3-d]pyrimidin-7-one] | > 7.52
13 | CCc1nn(C[C@@H]2CCCN2C)c2c(=O)[nH]c(-c3cc(S(C)(=O)=O)ccc3OCC(C)C)nc12 [Example 13, 3-Ethyl-5-[2-isobutoxy-5-(methylsulfonyl)phenyl]-1-{[(2S)-1-methylpyrrolidinyl]methyl}-1,6-dihydro-7H-pyrazolo[4,3-d]pyrimidin-7-one] | > 7.52
14 | CCc1c2nc(-c3cc(S(C)(=O)=O)ccc3OCC(C)C)[nH]c(=O)c2nn1C[C@H]1CCCN1C [Example 14, 3-Ethyl-5-[2-isobutoxy-5-(methylsulfonyl)phenyl]-2-{[(2R)-1-methylpyrrolidinyl]methyl}-2,6-dihydro-7H-pyrazolo[4,3-d]pyrimidin-7-one] | > 7.52
15 | CCc1c2nc(-c3cc(S(C)(=O)=O)ccc3OCC(C)C)[nH]c(=O)c2nn1Cc1cccnn1 [Example 15, 3-Ethyl-5-[2-isobutoxy-5-(methylsulfonyl)phenyl]-2-(3-pyridazinylmethyl)-2,6-dihydro-7H-pyrazolo[4,3-d]pyrimidin-7-one] | > 7.52
16 | CCc1nn(Cc2cccnn2)c2c(=O)[nH]c(-c3cc(S(C)(=O)=O)ccc3OCC(C)C)nc12 [Example 16, 3-Ethyl-5-[2-isobutoxy-5-(methylsulfonyl)phenyl]-1-(3-pyridazinylmethyl)-1,6-dihydro-7H-pyrazolo[4,3-d]pyrimidin-7-one] | > 7.52
17 | CCc1c2nc(-c3cc(S(C)(=O)=O)ccc3OCC(C)C)[nH]c(=O)c2nn1Cc1ccccn1 [Example 17, 3-Ethyl-5-[2-isobutoxy-5-(methylsulfonyl)phenyl]-2-(2-pyridinylmethyl)-2,6-dihydro-7H-pyrazolo[4,3-d]pyrimidin-7-one] | > 7.52
18 | CCCOc1ccc(S(C)(=O)=O)cc1-c1nc2c(CC)nn(C[C@@H]3CCCN3C)c2c(=O)[nH]1 [Example 18, 3-Ethyl-1-{[(2S)-1-methylpyrrolidinyl]methyl}-5-[5-(methylsulfonyl)-2-propoxyphenyl]-1,6-dihydro-7H-pyrazolo[4,3-d]pyrimidin-7-one] | > 7.52
19 | CCCCOc1ccc(S(C)(=O)=O)cc1-c1nc2c(CC)n(C3CN(C(C)C)C3)nc2c(=O)[nH]1 [Example 19, 5-[2-Butoxy-5-(methylsulfonyl)phenyl]-3-ethyl-2-(1-isopropyl-3-azetidinyl)-2,6-dihydro-7H-pyrazolo[4,3-d]pyrimidin-7-one] | > 7.52
20 | CCc1nn(C2CN(C(C)C)C2)c2c(=O)[nH]c(-c3cc(S(C)(=O)=O)ccc3OCC(C)C)nc12 [Example 20] | > 7.52
21 | CCc1c2nc(-c3cc(S(C)(=O)=O)ccc3OCC(C)C)[nH]c(=O)c2nn1C1CCN(C)CC1 [Example 21, 3-Ethyl-5-[2-isobutoxy-5-(methylsulfonyl)phenyl]-2-(1-methyl-4-piperidinyl)-2,6-dihydro-7H-pyrazolo[4,3-d]pyrimidin-7-one] | > 7.52
22 | CCc1c2nc(-c3cc(S(C)(=O)=O)ccc3OCC(C)C)[nH]c(=O)c2nn1C1CCN(C(C)C)CC1 [Example 22, 3-Ethyl-5-[2-isobutoxy-5-(methylsulfonyl)phenyl]-2-(1-isopropyl-4-piperidinyl)-2,6-dihydro-7H-pyrazolo[4,3-d]pyrimidin-7-one] | > 7.52
23 | CCCOc1ccc(S(C)(=O)=O)cc1-c1nc2c(CC)nn(CCN(C(C)C)C(C)C)c2c(=O)[nH]1 [Example 24, 1-[2-(Diisopropylamino)ethyl]-3-ethyl-5-[5-(methylsulfonyl)-2-propoxyphenyl]-1,6-dihydro-7H-pyrazolo[4,3-d]pyrimidin-7-one] | > 7.52
24 | CCCOc1ccc(S(C)(=O)=O)cc1-c1nc2c(CC)n(CCN(C(C)C)C(C)C)nc2c(=O)[nH]1 [Example 25, 2-[2-(diisopropylamino)ethyl]-3-ethyl-5-[5-(methylsulfonyl)-2-propoxyphenyl]-2,6-dihydro-7H-pyrazolo[4,3-d]pyrimidin-7-one] | > 7.52
25 | CCCOc1ccc(S(=O)(=O)CC)cc1-c1nc2c(CC)nn(C[C@@H]3CCCN3C)c2c(=O)[nH]1 [Example 26, 3-Ethyl-5-[5-(ethylsulfonyl)-2-propoxyphenyl]-1-{[(2S)-1-methylpyrrolidinyl]methyl}-1,6-dihydro-7H-pyrazolo[4,3-d]pyrimidin-7-one] | > 7.52
26 | CCCOc1ccc(S(C)(=O)=O)cc1-c1nc2c(CC)nn(C[C@@H]3CCCCN3C)c2c(=O)[nH]1 [Example 28, 3-Ethyl-1-{[(2S)-1-methylpiperidinyl]methyl}-5-[5-(methylsulfonyl)-2-propoxyphenyl]-1,6-dihydro-7H-pyrazolo[4,3-d]pyrimidin-7-one] | > 7.52
27 | C=CCc1nc(CC)n2nc(-c3cc(S(C)(=O)=O)ccc3OCCCC)[nH]c(=O)c12 [Example 29] | > 7.52
